Assay results: patent publication US20120010177A1, “MicroRNA Modulators and Method for Identifying And Using The Same” (The Wistar Institute / North Carolina State University, priority 2008, published 2012)
The name of at least one read-out is uncertain.

These molecules were tested on miR-21 (assay: High throughput primary miR-21 FLuc reporter assay (concentration-response)). Conditions: HeLa Luc-miR-21 reporter, 48-hour incubation, four parameter logistic fit.
Format: cell-based, human
How it was run: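 HeLa cells carrying a Luc-miR-21 firefly luciferase reporter were treated with compound for 48 h. miR-21 inhibition was read as increased luciferase signal. Concentration-response data were fitted with a four-parameter logistic model.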
`O=c1ccc2ccc(OCc3nnc(-c4ccccc4Br)o3)cc2o1` [Compound 28] was tested, and the “Curve Class” value was −2.2. For `Cc1c(C(=O)N(C)C(C)c2ccccn2)oc2c(F)cccc12` (stereo not drawn) [Compound 75], the “Curve Class” value was −2.2. For `O=C(CSc1ccccc1)NCCc1ccccc1` [Compound 152], the “Curve Class” value was −2.2. In the case of `Cc1oc(/C=N/NS(=O)(=O)c2ccccc2)cc1Br` [Compound 238], the “Curve Class” value is reported as −2.2. `CC(C)c1ccc(CNc2nc(-c3ccco3)nn2C(=O)c2ccc([N+](=O)[O-])cc2)cc1` [Compound 31] was tested, and the “Curve Class” value was −1.2. For `Clc1ccc(-n2ncc3c(NCc4ccccn4)ncnc32)cc1` [Compound 245], the “Curve Class” value was −2.2. For `CCn1nnc2cc(C(=O)Nc3ccc(OC)cc3)ccc21` [Compound 93], the “Curve Class” value was −2.2. In the case of `CSc1nsc(SCC(=O)N2CCCCC2)n1` [Compound 150], the “Curve Class” value is reported as −2.2. `Cc1cccc(OCC(=O)Nc2sc3c(c2C#N)CCC3)c1` [Compound 168] was tested, and the “Curve Class” value was −2.2. With `Cc1ccc(-c2csc(NC(=O)CSc3nc4ccccc4o3)n2)cc1` [Compound 147] the “Curve Class” value was −2.2. For `Cc1cc(C)n2nc(SCCOc3ccccc3)nc2n1` [Compound 45], the “Curve Class” value was −2.2. For `Cc1cc(C)n2nc(SCCOc3ccccc3F)nc2n1` [Compound 47], the “Curve Class” value was −2.2. With `COCC(=O)n1nc(-c2ccco2)nc1NCc1ccccc1Cl` [Compound 39] the “Curve Class” value was −2.2. In the case of `COc1ccc(-n2nnc(-c3nc(-c4cccs4)no3)c2N)cc1` [Compound 17], the “Curve Class” value is reported as −1.2. `COc1cccc(C(=O)NCCC2=CCCCC2)c1OC` [Compound 90] was tested, and the “Curve Class” value was −2.2. `Nc1c(-c2nc(-c3cccs3)no2)nnn1-c1ccccc1Cl` [Compound 22] was tested, and the “Curve Class” value was −1.3. For `Cc1ccc(NC(=O)Cc2noc3ccccc23)nc1` [Compound 111], the “Curve Class” value was −2.2. `COc1ccc(-n2ncc3c(NCCCn4ccnc4)ncnc32)cc1` [Compound 247] was tested, and the “Curve Class” value was −2.2. For `Cc1ccc(-c2nc3cnccn3c2Nc2ccccc2)o1` [Compound 243], the “Curve Class” value was −2.2. For `COc1cccc(OC)c1-c1nn2c(-c3ccco3)nnc2s1` [Compound 57], the “Curve Class” value was −2.2. With `O=C(c1cccc([N+](=O)[O-])c1)n1nc(-c2ccccc2)nc1NCc1ccccc1` [Compound 40] the “Curve Class” value was −2.2. With `CCc1ccc(-n2nnc(-c3nc(-c4cccs4)no3)c2N)cc1` [Compound 15] the “Curve Class” value was −1.2. For `Cc1ccsc1/C=N/NC(=O)c1ccc(-n2cccc2)cc1` [Compound 223], the “Curve Class” value was −2.2. `Nc1ncnc(Nc2ccc(F)c(Cl)c2)n1` [Compound 65] was tested, and the “Curve Class” value was −2.2. `Cc1ccccc1Nc1nc(N)nc(CCC(=O)c2ccc(O)cc2)n1` [Compound 69] was tested, and the “Curve Class” value was −2.2. `Cc1ccc(N/C(S)=N/NC(=O)c2nn(C)c(C)c2Cl)cc1` [Compound 203] was tested, and the “Curve Class” value was −2.2. In the case of `C/C(=N\NC(=O)c1nn(C)cc1Br)c1ccc(NC(=O)c2ccncc2)cc1` [Compound 234], the “Curve Class” value is reported as −2.2. With `Cc1cccc(-n2nnc(-c3nc(-c4cccs4)no3)c2N)c1C` [Compound 9] the “Curve Class” value was −1.2. With `COc1ccc(NC(=O)C/C(C)=N/NC(=O)c2cccs2)c([N+](=O)[O-])c1` [Compound 190] the “Curve Class” value was −1.2. `CC(=O)n1nc(-c2ccccc2)nc1NCc1cccs1` [Compound 42] was tested, and the “Curve Class” value was −2.2. `COC(=O)/C(=C/c1cccc([N+](=O)[O-])c1)NC(=O)c1ccc(OC)cc1` [Compound 89] was tested, and the “Curve Class” value was −2.2. `Cc1nnc(SCc2nc(N)nc(Nc3ccccc3)n2)s1` [Compound 60] was tested, and the “Curve Class” value was −2.2. In the case of `CCOc1ccc(NC(=O)CSc2ccc3ccccc3n2)cc1` [Compound 163], the “Curve Class” value is reported as −2.2. For `Cc1cc(Cl)c2oc(C(=O)N(CCO)Cc3ccccc3)c(C)c2c1` [Compound 78], the “Curve Class” value was −2.2. For `COc1ccc(-c2nc(SCc3ccccc3)n(S(C)(=O)=O)n2)cc1` [Compound 48], the “Curve Class” value was −2.2. For `COc1ccccc1NC(=O)CSc1nnc(-c2ccccn2)o1` [Compound 153], the “Curve Class” value was −2.2. In the case of `CCCNc1ncnc2c1cnn2-c1ccc(OC)cc1` [Compound 246], the “Curve Class” value is reported as −1.2. With `COc1ccc(CNc2nc(-c3ccccc3)nn2C(=O)c2ccc([N+](=O)[O-])cc2)cc1` [Compound 38] the “Curve Class” value was −2.2. For `COc1ccc(NC(=O)CSc2nc(SC)ns2)c(OC)c1` [Compound 125], the “Curve Class” value was −1.2. `O=C(COc1ccccc1F)Nc1ccc(-c2nc3ccccc3s2)cc1` [Compound 166] was tested, and the “Curve Class” value was −1.2. `O=C(CSc1nnc(-c2ccccn2)o1)Nc1cccc(Cl)c1` [Compound 124] was tested, and the “Curve Class” value was −1.2. In the case of `O=C(CSc1nnc(-c2cccnc2)o1)Nc1cccc(Cl)c1` [Compound 149], the “Curve Class” value is reported as −2.2. With `Cc1cccc(-n2nnc(-c3nc(-c4cccs4)no3)c2N)c1` [Compound 11] the “Curve Class” value was −1.2. `O=C(CSc1nnc(-c2ccc(C(F)(F)F)cn2)o1)Nc1cccc(Cl)c1` [Compound 132] was tested, and the “Curve Class” value was −2.2. `Cc1ccc(-c2nnc(SCC(=O)Nc3nccs3)n2N)cc1` [Compound 159] was tested, and the “Curve Class” value was −2.2. For `O=C(NN=C1CCCC1)c1cccs1` [Compound 186], the “Curve Class” value was −1.1. For `O=C(O)c1ccccc1C(=O)N1N=C(c2ccccc2)CC1c1ccccc1O` (stereo not drawn) [Compound 226], the “Curve Class” value was −2.2. `COc1ccccc1C(=O)n1nc(-c2ccco2)nc1NCc1ccc(Cl)cc1` [Compound 35] was tested, and the “Curve Class” value was −2.2. With `Nc1c(C(=O)Nc2ccc(Cl)cc2F)sc2nc(-c3cccs3)ccc12` [Compound 87] the “Curve Class” value was −2.2. For `Cc1cc(NC(=O)CSc2nc3ccsc3c(=O)n2NC(=O)c2ccccc2)no1` [Compound 133], the “Curve Class” value was −2.2. `Cc1ccc(OCC(=O)N(Cc2ccco2)c2ccccn2)cc1` [Compound 169] was tested, and the “Curve Class” value was −2.2. With `Cc1ccc(Nc2ncnc(N)n2)cc1C` [Compound 61] the “Curve Class” value was −2.2. For `Nc1cc(N)nc(SCC(=O)Nc2ccc(Br)cc2Cl)n1` [Compound 113], the “Curve Class” value was −2.2.

Same assay, conditions: Table 12 singletons; concentration-response curve class
`Cl.c1ccc(-c2nnc(CN3CCCCC3)o2)cc1` [Compound 327] was tested, and the “Curve Class” value was −2.2. For `CNc1nc(C)c(C(=O)OCc2ccccc2)s1` [Compound 316], the “Curve Class” value was −2.2. For `Fc1cccc(/C=N/N=C(\S)Nc2ccccc2Cl)c1` [Compound 268], the “Curve Class” value was −2.2. In the case of `Cc1ccc(/N=C(/c2cccs2)N2CCOCC2)cc1` [Compound 304], the “Curve Class” value is reported as −2.2. For `O=C(Nc1ccc(N2CCOCC2)cc1)c1cc(F)c(F)cc1Cl` [Compound 330], the “Curve Class” value was −2.2. In the case of `CCOC(=O)C1CCCN(Cc2cccc(Cl)c2)C1` (stereo not drawn) [Compound 335], the “Curve Class” value is reported as −2.2. For `CCC(C)NC(=O)c1ccc2c(c1)S(=O)(=O)c1ccccc1C2=O` (stereo not drawn) [Compound 331], the “Curve Class” value was −2.2. For `CCOC(=O)N1CCN(C(=O)CSCc2ccccc2Cl)CC1` [Compound 329], the “Curve Class” value was −2.2. In the case of `COc1ccc(NCc2cccn2-c2nnc(N3CCC(C)CC3)s2)c(OC)c1` [Compound 255], the “Curve Class” value is reported as −1.2. In the case of `COc1cc(O)sc1/C=N/c1ccc(Cl)cc1` [Compound 279], the “Curve Class” value is reported as −2.2. With `COc1ccc(C2Nc3ccccc3C(=O)N2c2ccc(C)cc2)cc1Cn1nc(C)c([N+](=O)[O-])c1C` (stereo not drawn) [Compound 347] the “Curve Class” value was −2.21. For `CCOC(=O)Nc1ccc2c(c1)ncn2C1CCCCC1` [Compound 333], the “Curve Class” value was −2.2. `Oc1csc(Cc2nc(-c3ccccc3F)cs2)n1` [Compound 276] was tested, and the “Curve Class” value was −2.2. With `Cn1nc2c3ccccc3n(Cc3ccccc3)c2nc1=S` [Compound 311] the “Curve Class” value was −2.2. In the case of `CC(C)(C)NS(=O)(=O)c1cccc(S(=O)(=O)c2cccc(S(=O)(=O)NC(C)(C)C)c2)c1` [Compound 253], the “Curve Class” value is reported as −1.2. `Cc1ccc2[nH]c3c(S)ncnc3c2c1` [Compound 264] was tested, and the “Curve Class” value was −2.2. For `Nc1c(Cl)cc2c(c1Oc1ccccc1)C(=O)c1ccccc1C2=O` [Compound 266], the “Curve Class” value was −2.2. For `CCCCCc1nc2c(=O)n(C)c3ccccc3c2o1` [Compound 324], the “Curve Class” value was −2.2. `Cc1cc(CC(C)C)n(-c2nc3ccccc3c(=O)n2OCC(N)=O)n1` [Compound 313] was tested, and the “Curve Class” value was −2.2.
